Laboratory results as given in publication PMC2891856.
Results are given in words; binding and its absence hold for the method and conditions named. In cells and extracts the contact can be indirect. These calls come from enrichment with a bait or labelling near it, and not all partners need be listed. For part of these data: No binding means not detected with the bait.

The chains behind the UniProt entries cited, without tags or fusion partners.
UniProt Q13547: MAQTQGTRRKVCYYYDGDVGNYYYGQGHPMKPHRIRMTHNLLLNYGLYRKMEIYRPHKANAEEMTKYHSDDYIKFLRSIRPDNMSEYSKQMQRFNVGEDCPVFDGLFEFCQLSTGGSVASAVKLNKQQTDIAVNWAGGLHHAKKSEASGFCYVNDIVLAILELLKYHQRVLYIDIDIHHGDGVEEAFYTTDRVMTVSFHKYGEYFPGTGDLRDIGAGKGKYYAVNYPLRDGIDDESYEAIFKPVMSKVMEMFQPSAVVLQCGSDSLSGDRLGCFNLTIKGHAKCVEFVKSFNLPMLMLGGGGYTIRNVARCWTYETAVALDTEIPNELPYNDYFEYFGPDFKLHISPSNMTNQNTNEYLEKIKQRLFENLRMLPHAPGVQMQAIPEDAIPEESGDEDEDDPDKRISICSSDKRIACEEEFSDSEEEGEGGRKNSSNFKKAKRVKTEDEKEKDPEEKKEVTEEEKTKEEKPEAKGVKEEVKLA
UniProt P13202: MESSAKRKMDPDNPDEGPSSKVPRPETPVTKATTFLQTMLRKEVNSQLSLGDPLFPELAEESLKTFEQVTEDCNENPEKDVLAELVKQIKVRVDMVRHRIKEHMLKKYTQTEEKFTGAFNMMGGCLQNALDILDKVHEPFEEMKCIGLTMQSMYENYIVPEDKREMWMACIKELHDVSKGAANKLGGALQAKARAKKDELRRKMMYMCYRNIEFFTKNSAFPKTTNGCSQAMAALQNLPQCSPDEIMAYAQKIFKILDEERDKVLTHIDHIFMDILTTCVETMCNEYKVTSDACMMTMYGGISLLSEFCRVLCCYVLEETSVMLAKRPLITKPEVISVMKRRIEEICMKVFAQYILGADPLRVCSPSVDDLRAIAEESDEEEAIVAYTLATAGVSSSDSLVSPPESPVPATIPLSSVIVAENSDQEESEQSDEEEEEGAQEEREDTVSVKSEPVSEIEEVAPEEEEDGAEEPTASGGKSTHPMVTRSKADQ
UniProt Q12873: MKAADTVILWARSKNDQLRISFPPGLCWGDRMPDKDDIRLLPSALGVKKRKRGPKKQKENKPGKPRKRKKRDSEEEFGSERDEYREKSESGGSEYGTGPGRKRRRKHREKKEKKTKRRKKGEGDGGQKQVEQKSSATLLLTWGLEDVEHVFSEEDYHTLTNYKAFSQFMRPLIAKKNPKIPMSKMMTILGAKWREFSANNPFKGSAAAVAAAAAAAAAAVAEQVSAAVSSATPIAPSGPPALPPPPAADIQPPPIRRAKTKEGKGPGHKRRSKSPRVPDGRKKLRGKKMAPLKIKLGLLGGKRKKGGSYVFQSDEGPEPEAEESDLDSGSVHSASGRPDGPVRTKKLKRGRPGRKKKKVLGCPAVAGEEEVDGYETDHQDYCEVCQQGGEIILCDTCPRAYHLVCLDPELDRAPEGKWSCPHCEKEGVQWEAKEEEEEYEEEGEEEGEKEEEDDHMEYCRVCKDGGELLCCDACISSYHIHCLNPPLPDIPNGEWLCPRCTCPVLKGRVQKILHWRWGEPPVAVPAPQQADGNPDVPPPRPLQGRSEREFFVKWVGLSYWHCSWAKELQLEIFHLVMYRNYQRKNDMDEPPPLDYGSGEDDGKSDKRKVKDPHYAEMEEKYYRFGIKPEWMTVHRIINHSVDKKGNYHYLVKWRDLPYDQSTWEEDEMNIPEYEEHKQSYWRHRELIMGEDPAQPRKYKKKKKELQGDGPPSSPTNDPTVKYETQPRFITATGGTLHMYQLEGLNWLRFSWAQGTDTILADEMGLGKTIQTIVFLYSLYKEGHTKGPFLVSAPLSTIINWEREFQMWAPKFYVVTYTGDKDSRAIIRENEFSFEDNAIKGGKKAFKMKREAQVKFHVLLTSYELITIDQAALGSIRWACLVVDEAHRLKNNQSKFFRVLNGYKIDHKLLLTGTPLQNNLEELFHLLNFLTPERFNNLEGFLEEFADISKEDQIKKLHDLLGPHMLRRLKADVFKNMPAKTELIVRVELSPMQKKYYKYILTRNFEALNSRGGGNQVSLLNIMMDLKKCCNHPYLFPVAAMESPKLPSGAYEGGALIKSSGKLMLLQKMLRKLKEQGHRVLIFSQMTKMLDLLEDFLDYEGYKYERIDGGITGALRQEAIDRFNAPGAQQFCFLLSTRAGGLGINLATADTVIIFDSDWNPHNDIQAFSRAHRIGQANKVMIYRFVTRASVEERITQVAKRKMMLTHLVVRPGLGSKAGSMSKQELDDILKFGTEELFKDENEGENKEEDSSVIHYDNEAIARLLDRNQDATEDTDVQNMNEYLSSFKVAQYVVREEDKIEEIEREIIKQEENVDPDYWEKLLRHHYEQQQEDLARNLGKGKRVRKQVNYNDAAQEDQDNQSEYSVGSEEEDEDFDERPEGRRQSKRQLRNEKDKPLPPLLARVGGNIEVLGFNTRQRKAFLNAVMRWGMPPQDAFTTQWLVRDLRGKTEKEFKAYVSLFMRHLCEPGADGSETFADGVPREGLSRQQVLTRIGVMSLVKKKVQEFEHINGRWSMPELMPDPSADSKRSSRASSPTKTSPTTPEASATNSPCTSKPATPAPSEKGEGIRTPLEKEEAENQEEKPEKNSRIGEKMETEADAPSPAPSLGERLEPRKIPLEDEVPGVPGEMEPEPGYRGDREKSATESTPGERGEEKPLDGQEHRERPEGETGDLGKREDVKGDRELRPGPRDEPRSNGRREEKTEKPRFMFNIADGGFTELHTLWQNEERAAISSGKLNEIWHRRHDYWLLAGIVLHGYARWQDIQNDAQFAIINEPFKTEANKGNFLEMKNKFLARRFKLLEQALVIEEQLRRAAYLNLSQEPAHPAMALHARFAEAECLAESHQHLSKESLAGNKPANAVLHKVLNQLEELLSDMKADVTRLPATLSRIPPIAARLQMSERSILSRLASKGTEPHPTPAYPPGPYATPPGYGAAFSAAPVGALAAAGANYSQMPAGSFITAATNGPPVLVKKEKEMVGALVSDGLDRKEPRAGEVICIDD
UniProt P16788: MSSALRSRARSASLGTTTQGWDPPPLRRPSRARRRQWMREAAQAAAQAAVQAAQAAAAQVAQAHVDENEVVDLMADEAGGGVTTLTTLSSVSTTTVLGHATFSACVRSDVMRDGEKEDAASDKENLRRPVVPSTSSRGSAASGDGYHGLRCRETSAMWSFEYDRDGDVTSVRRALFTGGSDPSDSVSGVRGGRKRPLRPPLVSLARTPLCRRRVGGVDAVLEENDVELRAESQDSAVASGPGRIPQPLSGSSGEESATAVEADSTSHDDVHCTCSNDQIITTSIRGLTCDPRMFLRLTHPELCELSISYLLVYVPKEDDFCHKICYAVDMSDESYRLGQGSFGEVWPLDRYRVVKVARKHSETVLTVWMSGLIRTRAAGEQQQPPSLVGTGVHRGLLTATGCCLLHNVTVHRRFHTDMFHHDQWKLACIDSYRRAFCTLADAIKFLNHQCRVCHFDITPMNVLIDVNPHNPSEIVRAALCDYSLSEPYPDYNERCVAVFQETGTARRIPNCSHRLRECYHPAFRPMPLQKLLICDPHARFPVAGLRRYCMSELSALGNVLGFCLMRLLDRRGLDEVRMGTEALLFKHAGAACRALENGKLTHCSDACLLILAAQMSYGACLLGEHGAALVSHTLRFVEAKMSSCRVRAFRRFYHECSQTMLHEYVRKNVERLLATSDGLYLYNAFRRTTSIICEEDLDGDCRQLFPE
UniProt P19893: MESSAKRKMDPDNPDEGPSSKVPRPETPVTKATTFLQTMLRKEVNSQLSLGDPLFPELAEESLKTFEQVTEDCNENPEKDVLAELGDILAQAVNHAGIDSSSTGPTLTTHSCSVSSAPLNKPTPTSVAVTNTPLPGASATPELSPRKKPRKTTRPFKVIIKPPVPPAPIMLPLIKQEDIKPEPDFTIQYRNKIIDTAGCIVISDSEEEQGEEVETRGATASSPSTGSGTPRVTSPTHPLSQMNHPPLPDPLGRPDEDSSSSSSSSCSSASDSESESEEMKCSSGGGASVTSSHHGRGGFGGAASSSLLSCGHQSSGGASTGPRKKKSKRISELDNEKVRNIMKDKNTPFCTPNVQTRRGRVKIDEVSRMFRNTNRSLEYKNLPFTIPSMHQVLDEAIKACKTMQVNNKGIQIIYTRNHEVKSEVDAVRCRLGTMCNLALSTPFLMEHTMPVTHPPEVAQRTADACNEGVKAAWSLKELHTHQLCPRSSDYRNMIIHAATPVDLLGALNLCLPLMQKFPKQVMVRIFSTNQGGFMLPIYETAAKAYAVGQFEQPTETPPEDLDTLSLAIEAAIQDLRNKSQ

B1: SIN3B (protein, UniProt O75182 1-1162)
chain: MAHAGGGSGGSGAGGPAGRGLSGARWGRSGSAGHEKLPVHVEDALTYLDQVKIRFGSDPATYNGFLEIMKEFKSQSIDTPGVIRRVSQLFHEHPDLIVGFNAFLPLGYRIDIPKNGKLNIQSPLTSQENSHNHGDGAEDFKQQVPYKEDKPQVPLESDSVEFNNAISYVNKIKTRFLDHPEIYRSFLEILHTYQKEQLNTRGRPFRGMSEEEVFTEVANLFRGQEDLLSEFGQFLPEAKRSLFTGNGPCEMHSVQKNEHDKTPEHSRKRSRPSLLRPVSAPAKKKMKLRGTKDLSIAAVGKYGTLQEFSFFDKVRRVLKSQEVYENFLRCIALFNQELVSGSELLQLVSPFLGKFPELFAQFKSFLGVKELSFAPPMSDRSGDGISREIDYASCKRIGSSYRALPKTYQQPKCSGRTAICKELDHWTLLQGSWTDDYCMSKFKNTCWIPGYSAGVLNDTWVSFPSWSEDSTFVSSKKTPYEEQLHRCEDERFELDVVLETNLATIRVLESVQKKLSRMAPEDQEKFRLDDSLGGTSEVIQRRAIYRIYGDKAPEIIESLKKNPVTAVPVVLKRLKAKEEEWREAQQGFNKIWREQYEKAYLKSLDHQAVNFKQNDTKALRSKSLLNEIESVYDEHQEQHSEGRSAPSSEPHLIFVYEDRQILEDAAALISYYVKRQPAIQKEDQGTIHQLLHQFVPSLFFSQQLDLGASEESADEDRDSPQGQTTDPSERKKPAPGPHSSPPEEKGAFGDAPATEQPPLPPPAPHKPLDDVYSLFFANNNWYFFLRLHQTLCSRLLKIYRQAQKQLLEYRTEKEREKLLCEGRREKGSDPAMELRLKQPSEVELEEYYPAFLDMVRSLLEGSIDPTQYEDTLREMFTIHAYVGFTMDKLVQNIARQLHHLVSDDVCLKVVELYLNEKKRGAAGGNLSSRCVRAARETSYQWKAERCMADENCFKVMFLQRKGQVIMTIELLDTEEAQTEDPVEVQHLARYVEQYVGTEGASSSPTEGFLLKPVFLQRNLKKFRRRWQSEQARALRGEARSSWKRLVGVESACDVDCRFKLSTHKMVFIVNSEDYMYRRGTLCRAKQVQPLVLLRHHQHFEEWHSRWLEDNVTVEAASLVQDWLMGEEDEDMVPCKTLCETVHVHGLPVTRYRVQYSRRPASP
B2: SDS3 (protein, UniProt Q9H7L9 1-328)
chain: MSAAGLLAPAPAQAGAPPAPEYYPEEDEELESAEDDERSCRGRESDEDTEDASETDLAKHDEEDYVEMKEQMYQDKLASLKRQLQQLQEGTLQEYQKRMKKLDQQYKERIRNAELFLQLETEQVERNYIKEKKAAVKEFEDKKVELKENLIAELEEKKKMIENEKLTMELTGDSMEVKPIMTRKLRRRPNDPVPIPDKRRKPAPAQLNYLLTDEQIMEDLRTLNKLKSPKRPASPSSPEHLPATPAESPAQRFEARIEDGKLYYDKRWYHKSQAIYLESKDNQKLSCVISSVGANEIWVRKTSDSTKMRIYLGQLQRGLFVIRRRSAA

What follows are molecules tested against HDAC1-enhanced green fluorescent protein fusion protein (UniProt Q13547) (assay: affinity purification with mass spectrometry).

Molecule | binding
HCMV IE1 (from UniProt P13202 1-491) | no binding
CHD3 (from UniProt Q12873 1-2000) | binds
HCMV pUL97 (from UniProt P16788 1-707) (enzyme) | binds
HCMV IE2 (from UniProt P19893 1-580) | no binding

Molecular target: HDAC1-enhanced green fluorescent protein fusion protein (UniProt Q13547)
Assay: affinity purification with mass spectrometry
Remark: another data set of the same source

Molecule | binding
B1 | binds
B2 | binds
